We go through eight compounds from patent publication US5413915A (priority 1991, dated 1995).

The subject of series [1] is rat liver microsomes. Nature of the series: Wipe test of coated glove with detection element (Example 11). Type of series: biochemical. Particulars: for Estimated metabolized dose: about 1/3 of microsomes benzo(a)pyrene-induced.
Series [2] relates to rat liver microsomes. Nature of the series: Color development in detection elements with different leuco dyes (Table 2). Conditions: dye response versus leuco-PRA response over test chemicals. The format is biochemical. How it is done: Solutions containing 0.5 mM of the respective dyes in 0.1 M TRIS buffer, pH=7.4 (except for nitro blue tetrazolium, 5.0 mM in 50% ethanolic TRIS, pH=7.4) were bleached with a few crystals of sodium sulfite or sodium dithionite, then plied in 0.02 mL aliquots as test spots on a clear sheet of transparency film. Spontaneous color development in air was noted (Table 2). Subsequently, a suspension of rat liver microsomes containing 1 mM NADPH and 1 mg/mL gelatin in 0.1 M TRIS-MOPS buffer (pH=7.7) was plied in 0.05 mL aliquots over the dried leuco-dye test spots. After drying, color development condition was noted, and the test spots saved for exposure tests to chemical substances (Table 2). Exposures were carried out by layering 0.01 mL of 0.1-1.0 M solutions of test chemical substances onto the test spots, and changes in color noted over time.

Setting [3] is: absorption spectrum of exposed element.

`c1ccc2c(c1)cc1ccc3cccc4ccc2c1c34` [Benzo(a)pyrene]: the Estimated metabolized dose entry with rat liver microsomes [1] is “approximately 93 nmols”. Also, in the series with rat liver microsomes [1] (setting [3]), the “Residual unmetabolized compound in detection element” value came to 7 nmols. Turning to `CN(C)c1ccc(C(=C2C=CC(=[N+](C)C)C=C2)c2ccc([N+](C)(C)C)cc2)cc1.[Cl-].[Cl-]` [Methyl Green, methyl green], the “Concordance to PRA” value in the series with rat liver microsomes [2] is 3/5. With `COc1cc(-c2ccc(-n3nc(-c4ccccc4)n[n+]3-c3ccc([N+](=O)[O-])cc3)c(OC)c2)ccc1-n1nc(-c2ccccc2)n[n+]1-c1ccc([N+](=O)[O-])cc1` [NBTZ, Nitro Blue Tetrazolium], the “Concordance to PRA” value in the series with rat liver microsomes [2] is given as 0/5. Still for that read-out and setting: the figure for `Nc1c(N=Nc2ccc([N+](=O)[O-])cc2)c(S(=O)(=O)O)cc2cc(S(=O)(=O)O)c(N=Nc3ccccc3)c(O)c12` [Naphthol Blue-Black, Naphthol Blue Black] is 1/5. For the compound `Oc1ccccc1` [Phenol], in the series on rat liver microsomes [1], the Estimated metabolized dose is listed as roughly 20 nmols. Further, the “Metabolites, as 1,4-benzoquinone” value with rat liver microsomes [1] (setting [3]) was roughly 20 nmols. Consider `Cc1cc2nc3cc(C)c(N)cc3[n+](-c3ccccc3)c2cc1N.[Cl-]` [Safranin O], for which, in the series on rat liver microsomes [2], the “Concordance to PRA” value is 1/5.

With Nile Blue A, the “Concordance to PRA” value with rat liver microsomes [2] was 4/5.

For the compound methyl violet, in the series on rat liver microsomes [2], the “Concordance to PRA” value is listed as 4/5.
